# Data reported in paper PMC8458969.
# The exact form of at least one protein or probe is not confirmed. A negative result means that nothing was seen under these conditions.
# Tested on: His-GmPGL2
# Test: EMSA
# Details: 2x binding buffer: 100 mM Na phosphate pH 7.5, 10 units RNasin, 0.1 mg/ml BSA, 10 mM DTT, 2.5 mg/ml heparin, 300 mM NaCl, 25 C, 30 min, recombinant protein, protein details: His (pCold vector), label: 3' 6-FAM
# [1] = shift reduced by 5, 10, 50 pmol unlabeled competitor
Sequence,binding result [1],binding result
CUAGGAACUUUUGCUUGCAUUGUAUCAUUUGGUCU [ndhB-141281 probe],binds,–
ACUAUCAGGUUUUUUCGGAAAACUUCAUUUAUUCU [ndhB-141424 probe],binds,–
AAAUAUCAUUUGAUUCGCCGAUCCUCAAAAAAAGA [rps14 probe],–,no binding
CCUACAGGAACUGUUCAGGACAUUUCAAAAAGGGC [rps16-56313 probe],binds,–
